Results deposited as PubChem BioAssay AID1508588 (Peter MacCallum Cancer Centre, 2020).
The deposit covers about 18,000 reagents; below is a random part of them. 790 of all reagents (4.4%) were called active. 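Calls rest on a combination of fold-change classes in drug and vehicle arms, not all shown here.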

- Screen: 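Knock-downs boosting vemurafenib effects on melanoma cell growth or lactate release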 (primary screen)
- Cells: human WM266.4 melanoma cells (BRAF V600 mutant)
- Reagent: siRNA pool against human genes, 40 nM
- Timing: 96 h from transfection to read-out
- Challenge: vemurafenib 300 nM (about IC25), added 48 h after transfection, for 48 h; comparison arm got DMSO vehicle only
- Read-out: 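Ratios to non-targeting siRNA for cell gain, counted as DAPI nuclei after minus before drug and averaged over two replicates, and for absorbance-read medium lactate per cell; both binned into fold-change classes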
- Reading the numbers: cell gain with vemurafenib: higher = more cell gain than with non-targeting siRNA; lactate per cell with vemurafenib: higher = more lactate made per cell
- Rule for the call: 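Enhancement is called by pairing each knock-down's vehicle-arm and drug-arm fold-change classes for viability or glycolysis; which class combinations qualify is not given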
- Calls: active = enhances vemurafenib effect; inactive = no enhancement seen

How did the screen score NUP58?
cell gain with vemurafenib: 0.18; lactate per cell with vemurafenib: 1.5; activity call: inactive

What did the screen give for LIME1?
cell gain with vemurafenib: 0.95; lactate per cell with vemurafenib: 1.09; activity call: inactive

For PLA2G1B, what does the deposit list?
cell gain with vemurafenib: 0.44; lactate per cell with vemurafenib: 0.95; activity call: inactive

What did the screen give for OVCA2?
cell gain with vemurafenib: 0.98; lactate per cell with vemurafenib: 0.76; activity call: inactive

Which result is listed for ATPSCKMT?
cell gain with vemurafenib: 0.43; lactate per cell with vemurafenib: 1.25; activity call: inactive

For SLC71A2, what was measured?
cell gain with vemurafenib: 0.72; lactate per cell with vemurafenib: 0.5; activity call: inactive

With GEMIN5, how do the results read?
cell gain with vemurafenib: 0.54; lactate per cell with vemurafenib: 1.19; activity call: inactive

How did the screen score SLC27A2?
cell gain with vemurafenib: 0.92; lactate per cell with vemurafenib: 0.59; activity call: inactive

For OR52E2, what does the deposit list?
cell gain with vemurafenib: 0.78; lactate per cell with vemurafenib: 0.26; activity call: inactive

What is on record for APC?
cell gain with vemurafenib: 0.87; lactate per cell with vemurafenib: 0.5; activity call: inactive

What is on record for AAMP?
cell gain with vemurafenib: 0.39; lactate per cell with vemurafenib: 0.82; activity call: inactive

How did the screen score OR6A2?
cell gain with vemurafenib: 0.38; lactate per cell with vemurafenib: 1.11; activity call: inactive

With KREMEN1, what was measured?
cell gain with vemurafenib: 0.53; lactate per cell with vemurafenib: 1.85; activity call: inactive

With ESRP1, what does the deposit list?
cell gain with vemurafenib: 0.58; lactate per cell with vemurafenib: 1.51; activity call: inactive

What is on record for MZF1?
cell gain with vemurafenib: 0.81; lactate per cell with vemurafenib: 0.66; activity call: inactive

With PRSS12, what was measured?
cell gain with vemurafenib: 0.33; lactate per cell with vemurafenib: 1.26; activity call: inactive

With MRNIP, what was measured?
cell gain with vemurafenib: 0.45; lactate per cell with vemurafenib: 1.32; activity call: inactive

With MCRIP2, what does the deposit list?
cell gain with vemurafenib: 0.33; lactate per cell with vemurafenib: 1.26; activity call: inactive

Which result is listed for H2AC16?
cell gain with vemurafenib: 0.07; lactate per cell with vemurafenib: 2.23; activity call: inactive

With MKI67, how do the results read?
cell gain with vemurafenib: -0.02; lactate per cell with vemurafenib: 1.02; activity call: inactive

With SCN3A, what does the deposit list?
cell gain with vemurafenib: 0.5; lactate per cell with vemurafenib: 0.6; activity call: inactive

How did the screen score ADORA2B?
cell gain with vemurafenib: 0.59; lactate per cell with vemurafenib: 0.68; activity call: active

How did the screen score OR5B3?
cell gain with vemurafenib: 0.24; lactate per cell with vemurafenib: 0.56; activity call: inactive

For SCG5, how do the results read?
cell gain with vemurafenib: 0.72; lactate per cell with vemurafenib: 0.89; activity call: inactive

With KCNJ1, what was measured?
cell gain with vemurafenib: 0.51; lactate per cell with vemurafenib: 0.83; activity call: inactive

With ASNS, what was measured?
cell gain with vemurafenib: 0.77; lactate per cell with vemurafenib: 0.8; activity call: inactive

What is on record for TMEM91?
cell gain with vemurafenib: 0.13; lactate per cell with vemurafenib: 1.6; activity call: inactive

Entries listed so far whose gene name begins with K or k (2):
KREMEN1: cell gain with vemurafenib = 0.53; lactate per cell with vemurafenib = 1.85; activity call = inactive
KCNJ1: cell gain with vemurafenib = 0.51; lactate per cell with vemurafenib = 0.83; activity call = inactive
